Patent publication US20260116920A1 (PEPTIDREAM INC., priority 2021, published 2026)

Test: general procedure: Fmoc solid-phase peptide synthesis; Sieber Amide Resin (Watanabe Chemical Industries, Ltd., 0.48 mmol/g); DIPCI/Oxyma Pure
Details: whole synthesis, UV 225 nm, scale of the general procedure 0.48 mmol/g, 0.26 g resin, thioether ring, sequence written open

Ala-Val-MePhe-Val-Trp-Asn-Tyr-Tyr-Ile-Ile-K(MePEG4c)-Arg-Phe-MeTyr-Cys
final purity (method not given): 92.3%
